# Assay results published in PubChem BioAssay AID1259415 (National Center for Advancing Translational Sciences (NCATS), 2018).
# Out of some 410,000 compounds screened, about 18,000 (4.4%) were called active. Inconclusive results, whose numbers are uncertain, are shown with a selection of clear calls. No stated cut-off is given here; in the data, active means activity change below about -60%; inconclusive means no clear call, values can overlap the other calls; inactive means above about -39%.
# Test: qHTS Assay for inhibitors of the human cytomegalovirus (HCMV)
# Settings: HFF cells, HCMV-luciferase reporter, 72 h; at 57.5 µM; stronger effect = lower value
# How it was run: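 Two-dose cell screen: HFF monolayers treated with compounds and infected with luciferase-expressing HCMV at 1 PFU/cell, 72 h at 37C, then lysed for luciferase measurement.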
# On the % scale 0 is the no-effect control and ±100 the full control effect.
row,Compound,"activity change, negative = inhibition"
1,O=C(CSc1nnc(-c2cccnc2)s1)Nc1ccnc2ccccc12,active: -91.7%
2,COc1cc(NC(=O)c2ccccc2OCc2ccccc2)cc(OC)c1OC,inactive: 4.4%
3,CCCSc1nsc(NC(=O)Nc2ccc(F)cc2F)n1,active: -101%
4,Clc1ccc(CN=C(Nc2ccccc2)NC2CCCCC2)cc1,active: -77.3%
5,Cc1c2cnn(CC(=O)NCc3ccc(F)cc3)c(=O)c2c(C)n1Cc1ccccc1F,inactive: 1.79%
6,Nc1c2c(nc3sc4c(c13)CCCC4)-c1ccccc1CC2,inconclusive: -45.4%
7,Cc1ccc(C(=O)Nc2nc(C)c(C(=O)Nc3ccc4c(c3)CCC4)s2)cc1,inconclusive: -40.9%
8,Cc1c(NC(=O)CSc2nnc(C(C)Oc3ccc(Cl)cc3)n2-c2ccccc2)c(=O)n(-c2ccccc2)n1C (configuration not stated),inconclusive: -45.9%
9,CCC(CC)NC(=O)CON=C1c2ccccc2-c2ccccc21,inconclusive: -51.9%
10,Cc1ccc(C(=O)N2CCN(c3ccc(C(F)(F)F)cn3)CC2)c(C)c1,inconclusive: -54.3%
11,Cc1ccccc1N=CC1=C(O)c2ccccc2C1=O,inactive: 22.5%
12,O=C(O)c1cccc(N2CCCCS2(=O)=O)c1,active: -99.8%
13,Cc1ccc(SCC(=O)N2N=CCC2c2ccccc2)cc1 (configuration not stated),inactive: -14.6%
14,Cc1ccc(C)c(Nc2c([N+](=O)[O-])c(=O)oc3ccccc23)c1,inconclusive: -49.9%
15,COc1ccc(CC(=O)N/N=C(\C)CC(=O)Nc2cccc(F)c2)cc1,inconclusive: -41.6%
16,CCC1=Nc2cc(C(=O)NCCCN3CCOCC3)ccc2Sc2ccccc21,inconclusive: -49.7%
17,O=C(N/N=C/c1ccccn1)c1ccc2nc[nH]c2c1,inconclusive: -51%
18,CCC1CCCCN1S(=O)(=O)c1ccc2c(c1)CCN2C(C)=O (configuration not stated),inactive: -17.1%
19,CCOC(=O)c1c(-c2ccccc2)csc1NC(=O)c1nc(S(=O)(=O)CC)ncc1Cl,active: -98%
20,CCc1ccc(NC(=O)c2cnn(-c3ccccc3)c2C2CCNCC2)cc1,inconclusive: -51.5%
21,CCN(CC)C(=O)c1sc(NC(=O)C(C)Sc2nc(-c3ccccc3)cc(C(F)(F)F)n2)c(C(=O)OC)c1C (configuration not stated),inconclusive: -48%
22,CCC(=O)Nc1ccc(S(=O)(=O)NCc2ccc3c(c2)CCN3C(=O)c2ccc(C)cc2)cc1,inconclusive: -47.8%

row,Compound,"activity change, negative = inhibition"
1,CCc1ccc(NC(=O)c2ccc(-n3cncn3)c([N+](=O)[O-])c2)cc1,inactive: -18.2%
2,Cc1oc(-c2cccc3ccccc23)nc1CN1CCN(c2ncnc3ccccc23)CC1,inconclusive: -58%
3,COc1ccc(C(=O)c2sc(Nc3cccc(OC)c3)c(C(=O)Nc3cccc(C)c3C)c2N)cc1,active: -70.1%
4,CN(Cc1cn(Cc2ccc(Cl)cc2)nn1)C1CN(Cc2cn(Cc3ccc(Cl)cc3)nn2)S(=O)(=O)C1 (configuration not stated),inconclusive: -50.8%
5,COc1ccc(C(=O)/C=C/c2ccc(OC)c(COc3ccccc3F)c2)cc1,inconclusive: -54.4%
6,CC(C)Cc1ccc(CN2CCCC(NC(=O)c3nn(C)c(=O)c4ccccc34)C2)cc1 (configuration not stated),inactive: -5.15%
7,Cc1c(-c2ccccc2)nc(-c2ccccc2)[nH]c1=O,inconclusive: -46.4%
8,Cc1cc(C)n(-c2ccc(C(C)C)cc2)c(=O)c1C#N,inconclusive: -48%
9,CCCNC(=O)c1nnc2n1CCN(C(=O)c1ccc(F)c(F)c1)C2,inactive: -3.54%
10,Cn1c(=O)c2cc(NC(=O)NCc3ccc(Cl)cc3Cl)ccc2n1Cc1ccc(F)cc1,inconclusive: -47.3%
11,Cc1ccc2c(c1)c1c(c(=O)n(-c3ccccc3C)c(=O)n1CC(=O)NCc1ccccc1)n2C,inconclusive: -42.5%
12,CN1CCCN=C1COC(=O)C(O)(c1ccccc1)C1CCCCC1 (configuration not stated),inconclusive: -47%
13,CCOC(=O)c1ccc(N2C(=O)c3n[nH]c(-c4cccs4)c3C2c2ccc(C(C)C)cc2)cc1 (configuration not stated),active: -106%
14,O=C(N/N=C/c1cccnc1)c1cc(-c2ccccc2OCc2ccccc2)n[nH]1,inconclusive: -53.3%
15,COc1ccc(Cn2c(-c3ccc(C)cc3)nc3c(c(=O)c4ccccc4n3C)c2=O)cc1,inactive: 54.9%
16,CCC(C)c1ccc2oc(-c3ccc(NC(=O)c4ncn[nH]4)cc3)nc2c1 (configuration not stated),inactive: -9.05%
17,CCc1noc(C)c1C(=O)NCCN1C(=O)S/C(=C\c2ccccc2F)C1=O,inactive: -30.7%
18,O=C1CN(C(=O)COC(=O)c2cccnc2Cl)c2ccccc2N1,inactive: 19.5%
19,O=C(Cn1cnc2ccccc21)Nc1ccc2c(c1)OCCCO2,inconclusive: -46.8%
20,Cc1ccc2cc(C)c(N3CCC(C)CC3)nc2c1,inconclusive: -49.3%
21,NC(=N\N=Cc1ccccc1)/C(N)=N/N=Cc1ccccc1,inconclusive: -55.5%
22,O=S(=O)(CCNCc1ccccc1)NC1CCCCC1,inactive: 1.92%

# Single entries from above:
# Under activity change, negative = inhibition, CN1CCCN=C1COC(=O)C(O)(c1ccccc1)C1CCCCC1 (configuration not stated) shows inconclusive: -47%
# Under activity change, negative = inhibition, CC(C)Cc1ccc(CN2CCCC(NC(=O)c3nn(C)c(=O)c4ccccc34)C2)cc1 (configuration not stated) shows inactive: -5.15%
# Under activity change, negative = inhibition, Cc1c(-c2ccccc2)nc(-c2ccccc2)[nH]c1=O shows inconclusive: -46.4%

# The results go on:

row,Compound,"activity change, negative = inhibition"
1,CC(C)Cn1c(SCC(=O)N(C)c2c(N)n(Cc3ccccc3)c(=O)[nH]c2=O)nc2ccccc21,inactive: -23.4%
2,COc1ccc(C(=O)OC2CCN(c3ncc(C(F)(F)F)cc3Cl)CC2)cc1,inconclusive: -59.9%
3,O=C(NNC(=O)c1sccc1-n1cccc1)c1ccc(Cl)cc1,inactive: -9.57%
4,O=C1CSC(=S)N1/N=C/c1ccc2c(c1)OCCO2,inactive: 42.9%
5,CC(=O)Nc1ccc(C(=O)N2CCCC(c3cc(C(=O)Nc4ccccc4)no3)C2)cc1 (configuration not stated),inconclusive: -40.2%
6,Cc1ccc(S(=O)(=O)N2CCC(C(=O)Nc3ccc(S(=O)(=O)N4CCOCC4)cc3)CC2)cc1,inconclusive: -50.8%
7,COc1ccc(CNc2cc([N+](=O)[O-])ccc2OC)cc1,active: -74.1%
8,Cc1ccc(C(=O)NCc2ccc3c(c2)OCO3)cc1N1CCCC1=O,inactive: 9.67%
9,COc1ccc(C(=O)NNC2=C(C(=O)C(F)(F)F)CCC2)cc1,inactive: -9.08%
10,O=C(Nc1ccc2c(c1)OCO2)c1ccccn1,inactive: 58.2%
11,CCN(CC)c1nc(-c2ccccc2)nc2ccccc12,active: -62.7%
12,CN(C)S(=O)(=O)c1cccc(NC(=O)c2cccc(NS(=O)(=O)c3ccccc3)c2)c1,active: -88.9%
13,COC(=O)c1ccc(/C=N/Nc2nc(N3CCCCC3)nc(N3CCCCC3)n2)cc1,inconclusive: -42.3%
14,N#Cc1c(-c2ccccc2)ccn(Cc2ccc(Cl)cc2)c1=O,inactive: -0.556%
15,Cc1ccc(-n2c(N)c(S(=O)(=O)c3ccccc3)c3nc4ccccc4nc32)cc1,inconclusive: -46.8%
16,N#Cc1cc(S(=O)(=O)c2ccc(Cl)cc2)c(N)[nH]c1=O,inconclusive: -56%
17,CCc1nc(N2CCN(C(=S)NCCCOC)CC2)c2c3c(sc2n1)CCCC3,active: -63.6%
18,C/C(=C\[C@@H](NP(=O)(c1ccccc1)c1ccccc1)c1ccccc1)CO[Si](c1ccccc1)(c1ccccc1)C(C)(C)C,inactive: -10.2%
19,COc1cc(OC)c(N(C)S(=O)(=O)c2cccc(C(=O)Nc3nccs3)c2)cc1Cl,inconclusive: -43.6%
20,Cc1ccc(NC(=O)/C(=C\C=C\c2ccccc2)NC(=O)c2ccccc2)cc1,inconclusive: -48.3%
21,CCCCCC1(C)NC(=S)N(c2ccccc2)N1 (configuration not stated),inactive: -22.3%
22,C=Cc1ccc(C(=O)N2CCCC(CCC(=O)N3CCN(c4ccccn4)CC3)C2)cc1 (configuration not stated),active: -64.7%

row,Compound,"activity change, negative = inhibition"
1,Cc1ccc(OCC(=O)N2CCc3ccccc3C2)cc1C,inactive: -3.89%
2,O=C(c1ccco1)c1cn(CC(=O)N2CCCCC2)c2ccccc12,inactive: 52.1%
3,O=[N+]([O-])c1ccc2c(c1)C(N1CCOCC1)/C(=C/C1(O)CCCCC1)O2 (configuration not stated),inconclusive: -44.4%
4,CC(=O)/C=C/c1ccccc1Oc1c(F)c(F)nc(F)c1F,active: -67%
5,CC(=O)OCC1=C(C(=O)OC(C)(C)C)N2C(=O)[C@@H](NC(=O)Cc3ccccc3)[C@H]2SC1,inactive: 32.2%
6,COc1cc(C)c(S(=O)(=O)Nc2ccccc2F)cc1C,inconclusive: -44.6%
7,O=C(c1ccccc1)c1cc(Cl)ccc1N1C(=O)C=CC1=O,inconclusive: -49.5%
8,CC(C)NC(=O)CC1Nc2c3ccccc3nc(=S)n2C1=O (configuration not stated),inactive: -12.6%
9,O=C(NCCOc1nc(N2CCOCC2)nc(N2CCOCC2)n1)Nc1ccc(Cl)cc1,inconclusive: -43.5%
10,COC(=O)C(CCCCNC(=O)OCc1ccccc1)NC(=O)CN (configuration not stated),inactive: -7.84%
11,O=C(c1ccccc1)n1ccc(-c2cccs2)n1,inconclusive: -42.8%
12,O=C(CCC(=O)Nc1nnc(C2CCCCC2)s1)NCc1ccc(F)cc1,inconclusive: -45.5%
13,Nc1ccc(Br)cc1Br,inactive: -12.4%
14,O=C1NC(c2ccccn2)Nc2sc3c(c21)CCC3 (configuration not stated),active: -103%
15,COc1ccccc1NC(=O)CCc1nnc2ccc(N3CCCCC3)nn12,inactive: -1.6%
16,CCOc1ccccc1NC(=O)CN(c1ccc(OC)cc1OC)S(=O)(=O)c1ccccc1[N+](=O)[O-],inconclusive: -54%
17,CC(C)Sc1ncc(Cl)c(C(=O)Nc2nnc(C(C)C)s2)n1,inactive: -3.07%
18,O=C(Nc1ccc(O)cc1)c1ccc(NC(=O)c2ccco2)cc1,inconclusive: -44.5%
19,Cc1onc(-c2ccc(F)cc2F)c1C(=O)Nc1cccc(C(F)(F)F)c1,inconclusive: -46.2%
20,Cc1c(Cl)cccc1NC(=O)Cn1c(=O)nc(-c2ccccc2)c2ccccc21,active: -87.1%
21,Brc1ccc(-c2c[n+]3c(n2-c2ccccc2)SCC3)cc1,active: -72.6%
